Reference: patent publication US20260209325A1, “SELECTIVE AND POTENT INHIBITORY ANTIBODIES OF MYOSTATIN ACTIVATION” (SCHOLAR ROCK, INC., priority 2022, published 2026)
Results are given in words; binding and its absence hold for the method and conditions named. Some binding calls cover weakened binding; strength is not graded here.

By UniProt entry, the sequences of proteins in these tests, tags left out. Where a name states a change or a piece, a line headed by the entry shows the natural chain unless it says otherwise.
UniProt O14793: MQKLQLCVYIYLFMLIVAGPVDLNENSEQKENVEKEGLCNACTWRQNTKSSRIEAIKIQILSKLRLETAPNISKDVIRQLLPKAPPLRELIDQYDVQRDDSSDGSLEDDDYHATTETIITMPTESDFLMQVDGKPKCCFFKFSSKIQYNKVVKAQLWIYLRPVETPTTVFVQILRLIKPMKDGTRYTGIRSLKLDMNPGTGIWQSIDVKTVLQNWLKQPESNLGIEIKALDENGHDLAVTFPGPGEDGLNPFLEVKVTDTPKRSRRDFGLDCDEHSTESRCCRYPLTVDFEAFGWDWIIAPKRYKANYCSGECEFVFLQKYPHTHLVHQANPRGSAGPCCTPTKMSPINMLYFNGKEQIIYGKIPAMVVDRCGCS

Biological target: human pro-myostatin (human) (UniProt O14793)
Test: plate binding assay, OD 450 nm, antibody titrated 0.0003 to 100 nM, panel 'Hu-Pro-GDF-8 Plate 2' (method not described in the text)

binding: binds
B1: Ab116 (antibody, human IgG4 S228P, kappa, V domains shown)
VH: QVQLVQSGAEVKKPGASVKVSCKVSGFTFSRPAIHWVRQAPGKGLEWMGGINPNAATTIYAQKFQGRVTMTEDTSTDTAYMELSSLKSEDTAVYYCARGRLLREWELRPYDTWGQGTLVTVSS
VL: DIQMTQSPSSVSASVGDRVTITCRASQSIGKSLAWYQQKPGKAPKLLIYSASNLRSGVPSRFSGSGSGTDFTLTISSLQPEDFANYYCQQYRDVPPITFGGGTKVEIKR
